Laboratory results from paper doi:10.1101/032243.

Target: T1, DISC1 (as used in the co-IP of Fig. S3D) (UniProt Q811T9)
T1 sequence: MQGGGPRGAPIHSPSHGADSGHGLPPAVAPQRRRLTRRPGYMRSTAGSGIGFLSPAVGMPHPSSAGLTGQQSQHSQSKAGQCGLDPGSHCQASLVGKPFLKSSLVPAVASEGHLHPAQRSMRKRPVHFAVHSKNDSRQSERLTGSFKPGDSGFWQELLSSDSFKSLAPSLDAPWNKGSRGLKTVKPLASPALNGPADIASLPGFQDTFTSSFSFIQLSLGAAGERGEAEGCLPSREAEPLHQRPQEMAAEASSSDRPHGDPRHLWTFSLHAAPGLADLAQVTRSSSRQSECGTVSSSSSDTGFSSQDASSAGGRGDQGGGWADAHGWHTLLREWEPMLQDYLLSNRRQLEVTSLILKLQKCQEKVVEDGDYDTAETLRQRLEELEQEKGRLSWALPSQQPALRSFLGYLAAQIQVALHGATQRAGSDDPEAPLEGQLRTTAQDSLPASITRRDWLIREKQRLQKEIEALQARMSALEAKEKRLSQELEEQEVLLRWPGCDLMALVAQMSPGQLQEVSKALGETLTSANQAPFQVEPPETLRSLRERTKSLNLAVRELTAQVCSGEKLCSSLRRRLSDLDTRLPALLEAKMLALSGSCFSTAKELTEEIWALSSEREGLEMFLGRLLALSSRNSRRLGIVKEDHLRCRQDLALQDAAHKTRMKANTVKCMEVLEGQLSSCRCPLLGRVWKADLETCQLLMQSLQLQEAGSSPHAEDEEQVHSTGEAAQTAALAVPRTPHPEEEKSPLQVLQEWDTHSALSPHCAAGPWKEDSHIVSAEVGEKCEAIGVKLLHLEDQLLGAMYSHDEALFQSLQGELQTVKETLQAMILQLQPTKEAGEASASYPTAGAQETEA
Assay: co-IP

Substance | binding
ERK | no binding
MEK | no binding

No constants are given. Whether binding was seen depends on the method and setting. In cells and extracts the contact can be indirect.
